This is one part of the list. The main result of the screen is listed elsewhere. These columns were measured beside it and carry no call. The list favours compounds with an active or inconclusive main result. Words in brackets tell the shape of the fitted curve; partial curves, single points and poor fits give uncertain potencies.

This test is described as follows: IkB Signaling. To be noted: ABC-DLBCL IkBa-CBG/CBR dual luciferase ratio (green luciferase fused to IkBa over red control in OCI-Ly3 lymphoma cells), 4 h. The procedure, abridged: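 In this assay, an IκBα–CBG68 fusion accumulates when IKK-driven degradation is blocked; native CBR normalizes for cell number. OCI-Ly3 cells were treated 4 h with compound and doxycycline, then green and red light read after Chroma-Glo addition.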
Where [1] appears, read: measured here: control luc red channel unless noted.
[2] abbreviates: measured here: IkB-luc green channel.
Setting [3] is: measured here: control luc red channel.

For the molecule `Nc1c(S(=O)(=O)c2cccs2)c2nc3ccccc3nc2n1/N=C/c1cccc(O)c1`, the AC50 under setting [1] is 2 µM [falling, full curve].
With `Cc1cccc2cc3c(nc12)SC(=NCC1CCCO1)N(Cc1ccco1)C3` (centres undefined), the AC50 was 2.51 µM [rising, partial curve] under setting [2] and 15.8 µM [falling, partial curve] under setting [3].
In the case of `Cn1c(C(=O)NCc2ccc(F)cc2)cc2cc(S(=O)(=O)N3CCCCC3)ccc21`, the AC50 under setting [1] is 12.6 µM [falling, partial curve].
The same measure, in the same setting: in the case of `CN(c1ccccc1)C(CNS(=O)(=O)c1ccccc1)c1ccccc1` (centres undefined) it was 25.1 µM [falling, partial curve].
Still for that read-out and setting: for `CCOC(=O)c1oc2cc(O)ccc2c(=O)c1-c1ccccc1OC` the value was 1 µM [falling, full curve]; for `CC(OC(=O)c1cc2sccc2n1C)C(=O)NCc1cccs1` (centres undefined), 31.6 µM [falling, partial curve].
Turning to `Cc1ccc(CN(Cc2ccco2)C(=O)c2cccc(C)c2)cc1`, under setting [1], the AC50 was 31.6 µM [falling, single point].
With `CNS(=O)(=O)c1cn(CC(=O)N2CCN(c3ccc(C)cc3C)CC2)cc1S(=O)(=O)NC`, the AC50 under setting [1] was 25.1 µM [falling, partial curve, poor fit].
The same measure, in the same setting: in the case of `Cc1ccc(C)c(NC(=O)CSc2nnc(C)n3c2cc2occc23)c1` it was 15.8 µM [falling, partial curve]; in that of `COc1ccc(C2c3c(-c4ccccc4O)n[nH]c3C(=O)N2CCc2ccccc2)cc1` (centres undefined), 10 µM [falling, partial curve]; in that of `CCC(C(=O)OC)n1nnc2sc(-c3ccccc3)cc2c1=O` (centres undefined), 15.8 µM [falling, partial curve].
Same read-out and setting: for `CCOC(=O)c1ccc(CN(Cc2ccc(Br)cc2)S(=O)(=O)c2cccc(C(F)(F)F)c2)cc1` the value was 0.251 µM [falling, partial curve]; for `COc1ccc2c(c1)c(=O)c(C(=O)c1ccc(C)cc1)cn2Cc1ccccc1F`, 39.8 µM [falling, single point].
Turning to `COc1cccc(N2CC(NC(=O)C3CCCCC3)CC2=O)c1` (centres undefined), the AC50 under setting [1] was 6.31 µM [rising, full curve].
The same measure, in the same setting: for `CC(=O)c1c(C)oc2ccc(NS(=O)(=O)c3ccc(C(C)C)cc3)cc12` the value was 2.51 µM [falling, full curve].
On the same count and under the same terms, in the case of `Cc1ccccc1C(=O)Nc1cccc(-c2cn3cccnc3n2)c1` it was 1.26 µM [rising, full curve, poor fit].
On to `COc1cccc(-c2cc(C(=O)Nc3ccc4c(c3)OCO4)no2)c1`, for which, under setting [1], the concentration at half-maximal activity (AC50) was 3.98 µM [falling, partial curve].
On to `CC1CCc2nc(NC(=O)c3ccco3)sc2C1` (centres undefined), for which the AC50 under setting [1] was 5.01 µM [falling, partial curve].
Same read-out and setting: for `COc1ccc(-c2cc3nc(C)c(CCC(=O)Nc4ccc(F)cc4F)c(C)n3n2)c(OC)c1` the value was 0.501 µM [falling, full curve].
On the same count and under the same terms, for `CCCNc1ccc(-c2nc(-c3ccco3)no2)cc1[N+](=O)[O-]` the value was 3.98 µM [rising, partial curve].
Still for that read-out and setting: in the case of `CCOC(=O)c1[nH]c2ccccc2c1NC(=O)c1ccccc1OC` it was 25.1 µM [falling, partial curve]; in that of `Cc1ccc(Cl)cc1N1CCN(C(=O)c2cn(CC(C)C)c(=O)c3c2c2ccccc2n3C)CC1`, 15.8 µM [falling, partial curve]; in that of `CCc1ccc(N2C(=O)CS(=O)(=O)C23C(=O)N(Cc2ccccc2)c2ccccc23)cc1` (centres undefined), 2.51 µM [falling, full curve].
On to `CSc1nc2ccc(NS(=O)(=O)c3ccc4c(c3)OCCO4)cc2s1`, for which the AC50 under setting [1] was 31.6 µM [falling, single point].
On the same count and under the same terms, for `Clc1c(CSc2nc3ccccc3o2)nc2ccccn12` the value was 25.1 µM [falling, single point]; for `O=C(Nc1ccccc1C(F)(F)F)c1noc2c1CCCCC2`, 0.2 µM [rising, full curve].
Consider `CC(=O)c1ccc(NC(=O)C2CCCN(S(=O)(=O)c3cn(C)cn3)C2)cc1` (centres undefined), for which the AC50 under setting [1] was 0.0501 µM [falling, full curve].
In the case of `CCc1cccc(C)c1Nc1c(-c2ccc(N3CCOCC3)cc2)nc2ncccn12`, under setting [1], the AC50 is 6.31 µM [falling, partial curve].
The same measure, in the same setting: for `CCOC(=O)C1CCCN(C(=O)c2cc3c(=O)n(C)c4ccccc4c3s2)C1` (centres undefined) the value was 12.6 µM [falling, partial curve]; for `CCCCOC(=O)c1cc2c(cn1)[nH]c1ccccc12`, 12.6 µM [falling, partial curve].
As to `CCOc1ccc(-c2c(C)nn3c(C)c(C(=O)NCC(C)c4ccccc4)cnc23)cc1OCC` (centres undefined), the AC50 under setting [1] was 25.1 µM [falling, single point].
Still for that read-out and setting: for `Cc1ccc(CNC(=O)c2ccc3c(c2)N(Cc2cccc(Cl)c2)C(=O)CS3)cc1` the value was 6.31 µM [falling, full curve].
For `Cc1ccc(Cl)cc1NC(=O)Cn1c(=O)n(CCC(=O)N2CCc3ccccc3C2)c(=O)c2ccccc21`, the AC50 under setting [1] was 5.01 µM [falling, full curve, poor fit].
Still for that read-out and setting: in the case of `CCOc1ccc(NC(=O)Cn2cc(C(=O)c3ccc(C)c(C)c3)c(=O)c3cc(F)ccc32)cc1` it was 20 µM [falling, single point]; in that of `COc1cc(NC(=O)CSc2nc3nc(C)c(Cc4ccccc4)c(C)n3n2)cc(OC)c1`, 15.8 µM [falling, partial curve].
Consider `O=C(O)CCC(=O)NCc1ccc2[nH]c3c(c2c1)CCCC3`, for which the AC50 under setting [1] is 3.98 µM [falling, partial curve].
The same measure, in the same setting: in the case of `CCN(c1ccc(C)cc1C)S(=O)(=O)c1nnc(NC(=O)CC(C)C)s1` it was 0.501 µM [falling, full curve]; in that of `CCOC(=O)c1cc2c(=O)n3ccccc3nc2n(Cc2ccco2)c1=NC(=O)c1ccccc1OC`, 10 µM [falling, partial curve]; in that of `O=C(Cn1c(=O)n(-c2ccc(F)cc2)c(=O)c2sccc21)Nc1cccc(C(F)(F)F)c1`, 31.6 µM [falling, single point].
Same read-out and setting: for `Cc1cc(C)cc(OCC(=O)Nc2cccc(-c3nc4ccccc4[nH]3)c2)c1` the value was 7.94 µM [falling, partial curve].
On the same count and under the same terms, for `COc1cccc(CNC(=O)Cn2c(=O)oc3cc(S(=O)(=O)N4CCC(C)CC4)ccc32)c1` the value was 10 µM [falling, partial curve].
As to `COc1ccc(Cn2c(C(=O)O)c(CNCCc3ccccc3Cl)c3ccc(C)cc32)cc1`, the half-maximal activity concentration (AC50) under setting [1] was 12.6 µM [falling, partial curve].
Same read-out and setting: in the case of `CCC(=O)N1CCc2cc(S(=O)(=O)CCC(=O)NCc3ccc(F)cc3)ccc21` it was 10 µM [rising, partial curve]; in that of `Cc1ccccc1NC(=O)CSc1nnc(-c2ccoc2C)n1CCc1ccccc1`, 31.6 µM [falling, partial curve]; in that of `Cc1ccc(C(=O)N2CCN(c3ccccc3F)CC2)cc1NC(=O)c1nsc2ccccc12`, 3.16 µM [falling, full curve].
For the molecule `COc1cccc(CNc2nc3nc(C)c(Cl)c(C)n3n2)c1`, under setting [1], the AC50 is 6.31 µM [falling, partial curve].
On the same count and under the same terms, for `COCCNC(=O)C(=O)Nc1c2c(nn1-c1ccccc1)CS(=O)(=O)C2` the value was 5.01 µM [rising, full curve].
With `CCn1cnc2c1c(=O)n(Cc1csc(-c3ccccc3)n1)c(=O)n2Cc1ccccc1`, the AC50 under setting [1] is 20 µM [falling, partial curve].
Consider `CCOc1ccc(CCNC(=O)Cn2nc(C)c3c(C)n(-c4ccccc4)nc3c2=O)cc1OCC`, for which, under setting [1], the AC50 was 39.8 µM [falling, single point].
Same read-out and setting: for `CCOC(=O)c1c(C)sc(-c2c(-c3cc(C)ccc3C)[nH]c3c2c(=O)[nH]c(=O)n3C)c1O` the value was 20 µM [falling, single point].
The same measure, in the same setting: for `Cc1cc(C)nc(SCC(=O)Nc2ccc(N3CCOCC3)c(Cl)c2)n1` the value was 10 µM [falling, partial curve]; for `CC(C)c1ccc(S(=O)(=O)N2CCN(CCC(=O)Nc3ccc(N(C)C)cc3)CC2)cc1`, 20 µM [falling, partial curve].
On the same count and under the same terms, in the case of `CCn1cc2nc(SCc3cccc(OC)c3)n(Cc3ccc(Cl)cc3)c(=O)c2n1` it was 20 µM [falling, single point]; in that of `COc1ccccc1NC(=O)c1cc(C(=O)O)ccc1C(=O)O`, 10 µM [falling, partial curve].
As for `COc1ccc(OC)c(CCNC(=O)Cn2sc3nc(C)cc(C)c3c2=O)c1`, the AC50 runs as follows: under setting [2], 39.8 µM [falling, single point]; under setting [3], 25.1 µM [falling, single point].
On to `CC1=C(C(=O)Nc2ccccc2Cl)C(c2cccs2)n2ncnc2N1` (centres undefined), for which the AC50 under setting [1] is 31.6 µM [falling, partial curve].
On to `O=S(=O)(NCc1ccccc1)c1ccc2[nH]c3c(c2c1)CCCCC3`, for which the AC50 under setting [1] was 39.8 µM [rising, partial curve, poor fit].
Take `COc1cccc(NS(=O)(=O)c2ccc3[nH]cc(C(=O)NC4CCCCC4)c(=O)c3c2)c1`: the AC50 under setting [1] was 25.1 µM [falling, partial curve].
As for `COc1ccccc1CCNC(=O)Cc1c(C)c2c(cc(C)c3c(C)coc32)oc1=O`, under setting [1], the AC50 was 0.316 µM [rising, full curve, poor fit].
Same read-out and setting: for `COc1ccc(N2C(=O)C(CC(=O)Nc3ccc(F)cc3)N(CCC3=CCCCC3)C2=O)cc1` (centres undefined) the value was 20 µM [falling, partial curve]; for `O=C(NC1CC(=O)N(c2cccc(F)c2)C1)C1CCCCC1` (centres undefined), 3.98 µM [falling, single point].
On the same count and under the same terms, for `COc1ccc(Cl)cc1NC(=O)CN1c2ccccc2S(=O)(=O)c2ccccc21` the value was 5.01 µM [falling, partial curve].

Source of the values: PubChem BioAssay AID445 (National Center for Advancing Translational Sciences (NCATS), 2006).
